No constants are given. Whether binding was seen depends on the method and setting. Binding seen in cells or lysates may run through a third protein. A yes stands for co-enrichment or nearness to the bait. Other partners may have been found.
Target: LAP-tagged FAM53C (GFP- and S-tagged) (UniProt Q9NYF3)
Assay: affinity purification with mass spectrometry; tandem affinity purification of LAP-tagged FAM53C from HEK-293T lysate (GFP-coupled beads, PreScission cleavage, S-protein agarose; washes with 200 mM KCl, 0.05% NP40), in-gel digestion, LC-MS/MS

By UniProt entry, the sequences of proteins in these tests, tags left out.
UniProt Q9NYF3: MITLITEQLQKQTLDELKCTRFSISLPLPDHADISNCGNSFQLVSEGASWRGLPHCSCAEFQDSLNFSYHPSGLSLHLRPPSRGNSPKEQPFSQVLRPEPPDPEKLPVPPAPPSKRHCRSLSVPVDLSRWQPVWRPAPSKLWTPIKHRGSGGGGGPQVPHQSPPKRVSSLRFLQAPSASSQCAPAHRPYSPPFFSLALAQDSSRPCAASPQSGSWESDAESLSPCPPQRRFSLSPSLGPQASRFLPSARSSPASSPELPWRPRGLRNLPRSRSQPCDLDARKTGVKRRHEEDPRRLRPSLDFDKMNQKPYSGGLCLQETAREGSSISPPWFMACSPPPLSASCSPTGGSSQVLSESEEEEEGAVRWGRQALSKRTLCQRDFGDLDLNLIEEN
UniProt O14965: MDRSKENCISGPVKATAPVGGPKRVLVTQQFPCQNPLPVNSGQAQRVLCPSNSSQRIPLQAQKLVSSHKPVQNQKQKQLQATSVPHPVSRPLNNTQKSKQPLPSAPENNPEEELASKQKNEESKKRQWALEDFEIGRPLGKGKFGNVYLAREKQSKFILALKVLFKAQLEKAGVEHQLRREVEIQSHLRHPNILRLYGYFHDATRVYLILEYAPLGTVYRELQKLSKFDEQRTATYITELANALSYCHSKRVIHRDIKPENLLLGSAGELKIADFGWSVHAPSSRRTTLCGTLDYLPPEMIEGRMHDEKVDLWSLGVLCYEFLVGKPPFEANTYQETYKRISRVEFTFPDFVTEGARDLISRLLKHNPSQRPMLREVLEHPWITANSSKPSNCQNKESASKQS
UniProt P53350: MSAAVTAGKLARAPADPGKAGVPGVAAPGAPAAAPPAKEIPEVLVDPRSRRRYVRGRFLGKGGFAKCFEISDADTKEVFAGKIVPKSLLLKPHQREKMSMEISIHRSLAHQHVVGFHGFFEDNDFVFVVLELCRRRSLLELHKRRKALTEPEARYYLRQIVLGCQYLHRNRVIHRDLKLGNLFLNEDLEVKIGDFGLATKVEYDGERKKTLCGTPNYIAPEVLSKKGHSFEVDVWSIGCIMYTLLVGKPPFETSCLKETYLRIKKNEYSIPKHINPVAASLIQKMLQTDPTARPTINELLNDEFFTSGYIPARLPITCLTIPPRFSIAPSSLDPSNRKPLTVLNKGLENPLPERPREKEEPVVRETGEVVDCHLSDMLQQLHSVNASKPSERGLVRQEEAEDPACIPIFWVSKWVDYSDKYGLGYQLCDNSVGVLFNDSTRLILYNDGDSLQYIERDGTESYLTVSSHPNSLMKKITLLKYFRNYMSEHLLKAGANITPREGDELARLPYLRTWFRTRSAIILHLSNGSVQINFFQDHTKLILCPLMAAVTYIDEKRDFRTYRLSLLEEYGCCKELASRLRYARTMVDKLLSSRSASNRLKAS

| Substance | binding |
| --- | --- |
| AURKA (from UniProt O14965 1-403) (enzyme) | binds |
| PLK1 (from UniProt P53350 1-603) (enzyme) | binds |
